Structures can show the parent of a compound that is named as a salt. The list shows a part of the results. Hit calls seldom repeat between salt and free forms of one compound.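 Kinases, fused to nanoluciferase, were expressed in K562 cells; luminescence was measured every 4 h from 2 to 18 h as percent of control (DMSO = 100%, positive control = 0%). A time point is decreased if signal falls significantly (2 sigma). Hits were called by the authors by a rule that is not shown; the count of time points alone does not decide it.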
Columns and labels:
Test in all cases: kinase-Nluc reporter destabilization hit call (1 = scored as downregulated) (binary); higher = compound decreases kinase abundance
Conditions in all cases: K562; 2-18 h
IRAK3 = IRAK3 (UniProt Q9Y616)
JAK1 = JAK1 (UniProt P23458)
LCK = LCK (UniProt P06239)
LIMK1 = LIMK1 (UniProt P53667)
LIMK2 = LIMK2 (UniProt P53671)
LMTK2 = LMTK2 (UniProt Q8IWU2)
LYN = LYN (UniProt P07948)
MAP2K1 = MAP2K1 (UniProt Q02750)
MAP2K2 = MAP2K2 (UniProt P36507)
MAP4K2 = MAP4K2 (UniProt Q12851)
MAPK1 = MAPK1 (UniProt P28482)
MAPK4 = MAPK4 (UniProt P31152)
MAPKAPK2 = MAPKAPK2 (UniProt P49137)
MKNK1 = MKNK1 (UniProt Q9BUB5)
NTRK2 = NTRK2 (UniProt Q16620)
NTRK3 = NTRK3 (UniProt Q16288)
PAK4 = PAK4 (UniProt O96013)
PBK = PBK (UniProt Q96KB5)
PDGFRB = PDGFRB (UniProt P09619)
PDK1 = PDK1 (UniProt Q15118)

By UniProt entry, the sequences of proteins in these tests, tags left out. Where a name states a change or a piece, a line headed by the entry shows the natural chain unless it says otherwise.
UniProt P23458: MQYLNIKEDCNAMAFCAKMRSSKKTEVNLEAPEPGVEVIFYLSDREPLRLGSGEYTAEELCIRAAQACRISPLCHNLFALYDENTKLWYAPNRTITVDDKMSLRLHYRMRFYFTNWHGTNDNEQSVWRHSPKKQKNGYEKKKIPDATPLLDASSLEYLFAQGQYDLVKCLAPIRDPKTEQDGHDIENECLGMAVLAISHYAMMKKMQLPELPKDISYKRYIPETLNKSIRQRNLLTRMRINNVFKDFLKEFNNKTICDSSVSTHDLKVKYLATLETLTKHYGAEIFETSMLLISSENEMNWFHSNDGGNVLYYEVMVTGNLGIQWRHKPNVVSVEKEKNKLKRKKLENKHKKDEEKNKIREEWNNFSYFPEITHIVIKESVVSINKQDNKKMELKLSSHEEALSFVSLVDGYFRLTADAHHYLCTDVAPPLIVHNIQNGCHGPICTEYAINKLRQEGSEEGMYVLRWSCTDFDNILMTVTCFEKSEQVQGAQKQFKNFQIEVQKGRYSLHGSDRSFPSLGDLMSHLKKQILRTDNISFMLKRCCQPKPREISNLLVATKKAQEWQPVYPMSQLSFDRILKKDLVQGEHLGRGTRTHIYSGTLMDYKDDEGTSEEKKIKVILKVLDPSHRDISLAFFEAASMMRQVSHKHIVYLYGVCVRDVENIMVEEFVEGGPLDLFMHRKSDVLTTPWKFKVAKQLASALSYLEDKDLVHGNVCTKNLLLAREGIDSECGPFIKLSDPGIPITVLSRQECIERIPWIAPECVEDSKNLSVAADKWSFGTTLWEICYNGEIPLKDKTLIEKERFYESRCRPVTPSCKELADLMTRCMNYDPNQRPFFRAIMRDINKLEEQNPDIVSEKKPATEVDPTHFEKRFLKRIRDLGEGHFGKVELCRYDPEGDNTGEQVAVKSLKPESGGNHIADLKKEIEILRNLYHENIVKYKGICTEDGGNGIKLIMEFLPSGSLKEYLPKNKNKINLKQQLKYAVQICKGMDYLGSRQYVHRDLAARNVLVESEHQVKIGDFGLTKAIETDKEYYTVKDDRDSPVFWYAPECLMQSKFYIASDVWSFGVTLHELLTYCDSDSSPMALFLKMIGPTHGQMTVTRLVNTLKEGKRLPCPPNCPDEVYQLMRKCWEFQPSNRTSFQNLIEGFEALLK
UniProt P06239: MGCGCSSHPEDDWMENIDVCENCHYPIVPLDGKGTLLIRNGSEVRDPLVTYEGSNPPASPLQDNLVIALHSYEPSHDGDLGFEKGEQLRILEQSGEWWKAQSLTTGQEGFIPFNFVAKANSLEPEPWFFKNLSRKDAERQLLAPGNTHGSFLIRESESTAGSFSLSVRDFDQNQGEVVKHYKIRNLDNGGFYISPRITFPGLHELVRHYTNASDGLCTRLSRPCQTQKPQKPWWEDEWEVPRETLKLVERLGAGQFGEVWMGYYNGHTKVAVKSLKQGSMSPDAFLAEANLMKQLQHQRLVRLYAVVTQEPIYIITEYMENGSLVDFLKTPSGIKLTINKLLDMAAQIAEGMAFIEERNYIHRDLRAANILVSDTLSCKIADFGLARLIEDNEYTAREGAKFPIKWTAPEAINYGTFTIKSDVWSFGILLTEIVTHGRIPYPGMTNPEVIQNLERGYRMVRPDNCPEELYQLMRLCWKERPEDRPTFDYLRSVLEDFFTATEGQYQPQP
UniProt P53671: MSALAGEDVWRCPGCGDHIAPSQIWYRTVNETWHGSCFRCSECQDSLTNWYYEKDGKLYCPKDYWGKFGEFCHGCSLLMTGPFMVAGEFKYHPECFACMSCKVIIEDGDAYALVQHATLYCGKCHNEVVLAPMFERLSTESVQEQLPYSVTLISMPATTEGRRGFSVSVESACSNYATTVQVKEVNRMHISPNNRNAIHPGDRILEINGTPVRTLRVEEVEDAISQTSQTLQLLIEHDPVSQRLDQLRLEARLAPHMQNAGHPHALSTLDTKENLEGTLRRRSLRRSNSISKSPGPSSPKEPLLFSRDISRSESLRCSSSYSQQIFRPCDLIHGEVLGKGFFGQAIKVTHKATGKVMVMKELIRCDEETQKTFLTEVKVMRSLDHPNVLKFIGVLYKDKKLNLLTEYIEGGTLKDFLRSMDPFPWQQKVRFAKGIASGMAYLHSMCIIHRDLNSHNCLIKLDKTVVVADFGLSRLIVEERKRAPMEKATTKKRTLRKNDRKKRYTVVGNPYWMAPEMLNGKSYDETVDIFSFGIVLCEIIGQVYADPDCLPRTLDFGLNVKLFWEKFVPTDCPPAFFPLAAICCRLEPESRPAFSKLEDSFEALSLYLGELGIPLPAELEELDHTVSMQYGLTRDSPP
UniProt Q8IWU2: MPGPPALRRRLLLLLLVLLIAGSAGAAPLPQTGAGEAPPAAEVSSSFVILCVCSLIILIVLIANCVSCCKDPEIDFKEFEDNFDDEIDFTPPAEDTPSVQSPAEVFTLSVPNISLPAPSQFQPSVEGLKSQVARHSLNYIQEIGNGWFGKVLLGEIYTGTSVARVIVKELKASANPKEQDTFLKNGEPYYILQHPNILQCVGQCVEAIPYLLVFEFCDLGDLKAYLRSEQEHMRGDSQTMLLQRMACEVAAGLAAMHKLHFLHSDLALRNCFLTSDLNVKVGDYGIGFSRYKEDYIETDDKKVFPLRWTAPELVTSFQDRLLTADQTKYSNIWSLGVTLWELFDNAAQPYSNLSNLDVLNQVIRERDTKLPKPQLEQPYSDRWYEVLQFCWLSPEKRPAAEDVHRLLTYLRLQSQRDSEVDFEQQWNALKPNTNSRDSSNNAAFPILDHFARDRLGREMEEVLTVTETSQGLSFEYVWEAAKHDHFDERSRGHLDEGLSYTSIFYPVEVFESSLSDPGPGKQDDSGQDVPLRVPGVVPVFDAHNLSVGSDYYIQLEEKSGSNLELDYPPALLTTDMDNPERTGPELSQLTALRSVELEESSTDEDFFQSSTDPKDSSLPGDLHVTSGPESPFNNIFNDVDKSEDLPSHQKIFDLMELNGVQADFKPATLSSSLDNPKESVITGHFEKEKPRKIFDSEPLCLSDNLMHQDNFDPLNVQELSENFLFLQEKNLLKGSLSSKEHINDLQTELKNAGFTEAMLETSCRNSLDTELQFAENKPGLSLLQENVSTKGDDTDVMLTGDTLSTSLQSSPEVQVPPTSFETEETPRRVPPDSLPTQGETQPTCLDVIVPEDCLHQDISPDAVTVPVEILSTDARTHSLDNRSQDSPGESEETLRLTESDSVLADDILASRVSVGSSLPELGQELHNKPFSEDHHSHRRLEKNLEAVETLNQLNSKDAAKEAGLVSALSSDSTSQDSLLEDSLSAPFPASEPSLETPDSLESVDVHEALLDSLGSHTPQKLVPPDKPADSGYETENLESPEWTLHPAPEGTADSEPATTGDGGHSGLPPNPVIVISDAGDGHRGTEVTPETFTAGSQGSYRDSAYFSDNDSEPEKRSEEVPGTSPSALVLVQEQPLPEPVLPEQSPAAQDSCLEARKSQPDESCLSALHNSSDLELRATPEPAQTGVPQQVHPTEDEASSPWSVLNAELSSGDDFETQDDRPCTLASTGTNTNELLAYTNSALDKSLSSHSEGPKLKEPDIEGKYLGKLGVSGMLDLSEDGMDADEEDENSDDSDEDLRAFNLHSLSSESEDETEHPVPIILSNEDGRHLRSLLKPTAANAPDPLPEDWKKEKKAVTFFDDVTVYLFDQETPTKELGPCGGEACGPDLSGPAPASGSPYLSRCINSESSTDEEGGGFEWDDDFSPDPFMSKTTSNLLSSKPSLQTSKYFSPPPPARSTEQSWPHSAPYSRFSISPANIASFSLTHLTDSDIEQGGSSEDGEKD
UniProt P07948: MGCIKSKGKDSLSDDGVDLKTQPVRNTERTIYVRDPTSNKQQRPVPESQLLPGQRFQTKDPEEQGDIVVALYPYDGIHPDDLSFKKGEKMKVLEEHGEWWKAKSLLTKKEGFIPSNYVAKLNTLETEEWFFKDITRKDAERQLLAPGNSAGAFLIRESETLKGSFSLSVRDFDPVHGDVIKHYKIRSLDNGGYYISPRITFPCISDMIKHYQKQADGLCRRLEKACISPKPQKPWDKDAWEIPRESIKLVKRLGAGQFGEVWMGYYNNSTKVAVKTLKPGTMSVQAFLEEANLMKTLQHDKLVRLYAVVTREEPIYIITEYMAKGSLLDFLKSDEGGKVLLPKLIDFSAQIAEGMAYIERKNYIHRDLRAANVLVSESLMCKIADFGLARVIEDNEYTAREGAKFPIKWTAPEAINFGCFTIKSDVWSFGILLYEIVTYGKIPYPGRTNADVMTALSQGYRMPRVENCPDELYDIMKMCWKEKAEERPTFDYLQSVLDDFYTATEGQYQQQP
UniProt Q12851: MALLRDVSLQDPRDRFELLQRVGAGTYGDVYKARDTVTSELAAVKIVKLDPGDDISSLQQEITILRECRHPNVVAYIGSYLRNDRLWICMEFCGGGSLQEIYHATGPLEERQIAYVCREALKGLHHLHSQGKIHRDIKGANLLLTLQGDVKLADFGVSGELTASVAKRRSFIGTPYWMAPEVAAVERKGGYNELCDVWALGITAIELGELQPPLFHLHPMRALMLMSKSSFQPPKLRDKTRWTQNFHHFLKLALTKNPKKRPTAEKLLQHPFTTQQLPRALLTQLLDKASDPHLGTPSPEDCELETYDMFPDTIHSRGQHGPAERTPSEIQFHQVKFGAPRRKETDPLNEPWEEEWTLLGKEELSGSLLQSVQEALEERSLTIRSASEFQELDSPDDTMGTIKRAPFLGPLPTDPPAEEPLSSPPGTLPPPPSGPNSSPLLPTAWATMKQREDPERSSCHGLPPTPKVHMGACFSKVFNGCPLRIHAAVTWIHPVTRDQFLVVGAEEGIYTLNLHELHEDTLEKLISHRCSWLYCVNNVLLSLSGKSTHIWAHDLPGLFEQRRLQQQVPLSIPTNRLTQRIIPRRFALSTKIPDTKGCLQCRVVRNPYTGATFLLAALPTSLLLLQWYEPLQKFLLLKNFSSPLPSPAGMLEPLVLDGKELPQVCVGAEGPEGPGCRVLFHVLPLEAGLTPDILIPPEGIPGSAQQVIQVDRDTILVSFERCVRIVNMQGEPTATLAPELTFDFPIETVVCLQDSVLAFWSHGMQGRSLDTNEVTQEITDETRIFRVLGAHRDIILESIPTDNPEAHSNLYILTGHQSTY
UniProt P31152, whole entry: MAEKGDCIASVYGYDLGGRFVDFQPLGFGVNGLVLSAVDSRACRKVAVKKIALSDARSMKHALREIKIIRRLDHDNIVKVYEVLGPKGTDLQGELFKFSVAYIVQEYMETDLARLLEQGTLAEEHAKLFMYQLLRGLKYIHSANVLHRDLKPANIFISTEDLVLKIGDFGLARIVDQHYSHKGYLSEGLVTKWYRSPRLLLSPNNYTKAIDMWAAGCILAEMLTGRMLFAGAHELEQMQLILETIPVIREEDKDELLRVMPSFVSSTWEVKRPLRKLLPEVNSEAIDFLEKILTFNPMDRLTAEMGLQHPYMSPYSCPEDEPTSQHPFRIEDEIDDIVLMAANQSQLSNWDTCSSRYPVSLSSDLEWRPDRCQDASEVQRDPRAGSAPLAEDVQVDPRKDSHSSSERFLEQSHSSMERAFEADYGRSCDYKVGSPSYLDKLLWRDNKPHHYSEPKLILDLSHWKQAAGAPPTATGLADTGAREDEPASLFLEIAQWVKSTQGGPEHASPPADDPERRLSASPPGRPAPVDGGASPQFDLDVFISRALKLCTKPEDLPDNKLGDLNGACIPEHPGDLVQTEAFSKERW
UniProt P49137, whole entry, looked up: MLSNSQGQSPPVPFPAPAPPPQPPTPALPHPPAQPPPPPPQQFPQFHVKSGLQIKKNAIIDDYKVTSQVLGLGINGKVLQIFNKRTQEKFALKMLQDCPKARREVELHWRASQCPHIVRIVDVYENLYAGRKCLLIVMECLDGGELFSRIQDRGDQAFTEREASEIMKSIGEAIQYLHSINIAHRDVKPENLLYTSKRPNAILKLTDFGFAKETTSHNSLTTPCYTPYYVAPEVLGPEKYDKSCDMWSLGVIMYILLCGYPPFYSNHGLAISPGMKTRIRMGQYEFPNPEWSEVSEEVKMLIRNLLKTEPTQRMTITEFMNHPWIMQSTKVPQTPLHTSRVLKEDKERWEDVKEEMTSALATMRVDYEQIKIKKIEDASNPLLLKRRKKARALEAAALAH
UniProt Q9BUB5: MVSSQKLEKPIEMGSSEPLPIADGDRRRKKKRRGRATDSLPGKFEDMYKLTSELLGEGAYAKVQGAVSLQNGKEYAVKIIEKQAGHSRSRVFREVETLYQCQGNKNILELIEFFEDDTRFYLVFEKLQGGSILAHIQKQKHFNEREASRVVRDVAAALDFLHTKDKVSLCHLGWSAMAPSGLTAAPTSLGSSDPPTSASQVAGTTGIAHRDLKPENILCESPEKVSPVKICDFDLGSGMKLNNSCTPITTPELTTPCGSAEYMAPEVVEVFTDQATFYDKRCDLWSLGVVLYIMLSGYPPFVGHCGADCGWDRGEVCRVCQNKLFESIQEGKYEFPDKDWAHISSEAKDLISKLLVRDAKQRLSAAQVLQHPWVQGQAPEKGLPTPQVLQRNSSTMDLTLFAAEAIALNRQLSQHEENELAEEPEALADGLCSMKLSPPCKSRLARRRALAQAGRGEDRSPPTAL

Measured: kinase-Nluc reporter destabilization hit call

CC(=O)O/N=C1/C(c2c(O)[nH]c3cc(Br)ccc23)=Nc2ccccc21 [BIO-acetoxime] (10 µM)
inactive: IRAK3 = 0 | JAK1 = 0 | LCK 0 | LIMK1 = 0 | LIMK2 = 0 | LMTK2 = 0 | LYN 0 | MAP2K1 = 0 | MAP2K2 = 0 | MAP4K2 = 0 | MAPK1 = 0 | MAPK4 = 0 | MAPKAPK2 = 0 | MKNK1 = 0 | NTRK2 = 0 | NTRK3 = 0 | PAK4 = 0 | PBK 0 | PDGFRB 0 | PDK1 = 0

CN(C[C@@H]1COCCO1)S(=O)(=O)Nc1ccc2ccc3ncc(-c4cnn(C)c4)cc3c(=O)c2c1 (2.5 µM)
inactive: IRAK3 = 0 | JAK1 = 0 | LCK 0 | LIMK1 = 0 | LIMK2 = 0 | LMTK2 = 0 | LYN 0 | MAP2K1 = 0 | MAP2K2 = 0 | MAP4K2 = 0 | MAPK1 = 0 | MAPK4 = 0 | MAPKAPK2 = 0 | MKNK1 = 0 | NTRK2 = 0 | NTRK3 = 0 | PAK4 = 0 | PBK 0 | PDGFRB 0 | PDK1 = 0

Cn1cc(-c2nc(N[C@@H]3CCCC[C@@H]3N)c(F)c3c2C(=O)NC3)cn1 [TAK-659 (hydrochloride)] (2 µM)
inactive: IRAK3 = 0 | JAK1 = 0 | LCK 0 | LIMK1 = 0 | LIMK2 = 0 | LMTK2 = 0 | LYN 0 | MAP2K1 = 0 | MAP2K2 = 0 | MAP4K2 = 0 | MAPK1 = 0 | MAPK4 = 0 | MAPKAPK2 = 0 | MKNK1 = 0 | NTRK2 = 0 | NTRK3 = 0 | PAK4 = 0 | PBK 0 | PDGFRB 0 | PDK1 = 0

CCc1cc(Nc2nccc(-c3c(-c4ccc(OC)c(C(=O)Nc5c(F)cccc5F)c4)nc4ccccn34)n2)c(OC)cc1N1CCC(N2CCN(S(C)(=O)=O)CC2)CC1 (2.5 µM)
inactive: IRAK3 = 0 | JAK1 = 0 | LCK 0 | LIMK1 = 0 | LIMK2 = 0 | LMTK2 = 0 | LYN 0 | MAP2K1 = 0 | MAP2K2 = 0 | MAP4K2 = 0 | MAPK1 = 0 | MAPK4 = 0 | MAPKAPK2 = 0 | MKNK1 = 0 | NTRK2 = 0 | NTRK3 = 0 | PAK4 = 0 | PBK 0 | PDGFRB 0 | PDK1 = 0

O=S(=O)(c1ccc(O)cc1O)N1Cc2cc(O)cc(O)c2C1 (10 µM)
inactive: IRAK3 = 0 | JAK1 = 0 | LCK 0 | LIMK1 = 0 | LIMK2 = 0 | LMTK2 = 0 | LYN 0 | MAP2K1 = 0 | MAP2K2 = 0 | MAP4K2 = 0 | MAPK1 = 0 | MAPK4 = 0 | MAPKAPK2 = 0 | MKNK1 = 0 | NTRK2 = 0 | NTRK3 = 0 | PAK4 = 0 | PBK 0 | PDGFRB 0 | PDK1 = 0

Three consecutive records already listed, for reference:
CC(=O)O/N=C1/C(c2c(O)[nH]c3cc(Br)ccc23)=Nc2ccccc21 [BIO-acetoxime] (10 µM)
inactive: IRAK3 = 0 | JAK1 = 0 | LCK 0 | LIMK1 = 0 | LIMK2 = 0 | LMTK2 = 0 | LYN 0 | MAP2K1 = 0 | MAP2K2 = 0 | MAP4K2 = 0 | MAPK1 = 0 | MAPK4 = 0 | MAPKAPK2 = 0 | MKNK1 = 0 | NTRK2 = 0 | NTRK3 = 0 | PAK4 = 0 | PBK 0 | PDGFRB 0 | PDK1 = 0

CN(C[C@@H]1COCCO1)S(=O)(=O)Nc1ccc2ccc3ncc(-c4cnn(C)c4)cc3c(=O)c2c1 (2.5 µM)
inactive: IRAK3 = 0 | JAK1 = 0 | LCK 0 | LIMK1 = 0 | LIMK2 = 0 | LMTK2 = 0 | LYN 0 | MAP2K1 = 0 | MAP2K2 = 0 | MAP4K2 = 0 | MAPK1 = 0 | MAPK4 = 0 | MAPKAPK2 = 0 | MKNK1 = 0 | NTRK2 = 0 | NTRK3 = 0 | PAK4 = 0 | PBK 0 | PDGFRB 0 | PDK1 = 0

Cn1cc(-c2nc(N[C@@H]3CCCC[C@@H]3N)c(F)c3c2C(=O)NC3)cn1 [TAK-659 (hydrochloride)] (2 µM)
inactive: IRAK3 = 0 | JAK1 = 0 | LCK 0 | LIMK1 = 0 | LIMK2 = 0 | LMTK2 = 0 | LYN 0 | MAP2K1 = 0 | MAP2K2 = 0 | MAP4K2 = 0 | MAPK1 = 0 | MAPK4 = 0 | MAPKAPK2 = 0 | MKNK1 = 0 | NTRK2 = 0 | NTRK3 = 0 | PAK4 = 0 | PBK 0 | PDGFRB 0 | PDK1 = 0

Next results:

NC(=O)c1ccccc1Nc1ccnc(Nc2cccc(O)c2)n1 (10 µM)
inactive: IRAK3 = 0 | JAK1 = 0 | LCK 0 | LIMK1 = 0 | LIMK2 = 0 | LMTK2 = 0 | LYN 0 | MAP2K1 = 0 | MAP2K2 = 0 | MAP4K2 = 0 | MAPK1 = 0 | MAPK4 = 0 | MAPKAPK2 = 0 | MKNK1 = 0 | NTRK2 = 0 | NTRK3 = 0 | PAK4 = 0 | PBK 0 | PDGFRB 0 | PDK1 = 0

N=C(NC(=N)N1CCCC1)Nc1ccc(OC(F)(F)F)cc1 (10 µM)
inactive: IRAK3 = 0 | JAK1 = 0 | LCK 0 | LIMK1 = 0 | LIMK2 = 0 | LMTK2 = 0 | LYN 0 | MAP2K1 = 0 | MAP2K2 = 0 | MAP4K2 = 0 | MAPK1 = 0 | MAPK4 = 0 | MAPKAPK2 = 0 | MKNK1 = 0 | NTRK2 = 0 | NTRK3 = 0 | PAK4 = 0 | PBK 0 | PDGFRB 0 | PDK1 = 0

CO/N=C1/C(c2c(O)[nH]c3cc(Cl)c(Cl)cc23)=Nc2ccccc21 (10 µM)
inactive: IRAK3 = 0 | JAK1 = 0 | LCK 0 | LIMK1 = 0 | LIMK2 = 0 | LMTK2 = 0 | LYN 0 | MAP2K1 = 0 | MAP2K2 = 0 | MAP4K2 = 0 | MAPK1 = 0 | MAPK4 = 0 | MAPKAPK2 = 0 | MKNK1 = 0 | NTRK2 = 0 | NTRK3 = 0 | PAK4 = 0 | PBK 0 | PDGFRB 0 | PDK1 = 0

CO[C@]1(C(=O)N[C@@H](C)c2ccc(-n3cc(F)cn3)nc2)CC[C@H](c2nc(C)cc(Nc3cc(C)[nH]n3)n2)CC1 [Pralsetinib] (10 µM)
inactive: IRAK3 = 0 | JAK1 = 0 | LCK 0 | LIMK1 = 0 | LIMK2 = 0 | LMTK2 = 0 | LYN 0 | MAP2K1 = 0 | MAP2K2 = 0 | MAP4K2 = 0 | MAPK1 = 0 | MAPK4 = 0 | MAPKAPK2 = 0 | MKNK1 = 0 | NTRK2 = 0 | NTRK3 = 0 | PAK4 = 0 | PBK 0 | PDGFRB 0 | PDK1 = 0

CC(C)c1cc2c(c(O)c1O)[C@@]13CCCC(C)(C)[C@@H]1C[C@@H]2OC3=O [Carnosol] (2.5 µM)
inactive: IRAK3 = 0 | JAK1 = 0 | LCK 0 | LIMK1 = 0 | LIMK2 = 0 | LMTK2 = 0 | LYN 0 | MAP2K1 = 0 | MAP2K2 = 0 | MAP4K2 = 0 | MAPK1 = 0 | MAPK4 = 0 | MAPKAPK2 = 0 | MKNK1 = 0 | NTRK2 = 0 | NTRK3 = 0 | PAK4 = 0 | PBK 0 | PDGFRB 0 | PDK1 = 0

NC(=O)c1cnc(N[C@@H]2CCCC[C@@H]2N)nc1Nc1cccc(-n2nccn2)c1 (2.5 µM)
inactive: IRAK3 = 0 | JAK1 = 0 | LCK 0 | LIMK1 = 0 | LIMK2 = 0 | LMTK2 = 0 | LYN 0 | MAP2K1 = 0 | MAP2K2 = 0 | MAP4K2 = 0 | MAPK1 = 0 | MAPK4 = 0 | MAPKAPK2 = 0 | MKNK1 = 0 | NTRK2 = 0 | NTRK3 = 0 | PAK4 = 0 | PBK 0 | PDGFRB 0 | PDK1 = 0

CCOC(=O)c1c(Nc2ccccc2Cl)oc(/C=C2\C=Nc3ncccc32)c1O (10 µM)
inactive: IRAK3 = 0 | JAK1 = 0 | LCK 0 | LIMK1 = 0 | LIMK2 = 0 | LMTK2 = 0 | LYN 0 | MAP2K1 = 0 | MAP2K2 = 0 | MAP4K2 = 0 | MAPK1 = 0 | MAPK4 = 0 | MAPKAPK2 = 0 | MKNK1 = 0 | NTRK2 = 0 | NTRK3 = 0 | PAK4 = 0 | PBK 0 | PDGFRB 0 | PDK1 = 0

COc1c(Nc2ncc(Cl)c(N[C@H]3[C@@H](C(N)=O)[C@@H]4C=C[C@H]3C4)n2)ccc2c1CC[C@@H](N1CCOCC1)CC2 (10 µM)
inactive: IRAK3 = 0 | JAK1 = 0 | LCK 0 | LIMK1 = 0 | LIMK2 = 0 | LMTK2 = 0 | LYN 0 | MAP2K1 = 0 | MAP2K2 = 0 | MAP4K2 = 0 | MAPK1 = 0 | MAPK4 = 0 | MAPKAPK2 = 0 | MKNK1 = 0 | NTRK2 = 0 | NTRK3 = 0 | PAK4 = 0 | PBK 0 | PDGFRB 0 | PDK1 = 0

Cc1ncc(-c2cc(F)c(O)c(F)c2)cc1-c1cc(F)c(O)c(F)c1 (10 µM)
inactive: IRAK3 = 0 | JAK1 = 0 | LCK 0 | LIMK1 = 0 | LIMK2 = 0 | LMTK2 = 0 | LYN 0 | MAP2K1 = 0 | MAP2K2 = 0 | MAP4K2 = 0 | MAPK1 = 0 | MAPK4 = 0 | MAPKAPK2 = 0 | MKNK1 = 0 | NTRK2 = 0 | NTRK3 = 0 | PAK4 = 0 | PBK 0 | PDGFRB 0 | PDK1 = 0

CC(C1CC1)n1cnc2c(NCc3cccc(C(F)(F)F)c3)nc(NCCN(C)C)nc21 (stereo not given) (10 µM)
inactive: IRAK3 = 0 | JAK1 = 0 | LCK 0 | LIMK1 = 0 | LIMK2 = 0 | LMTK2 = 0 | LYN 0 | MAP2K1 = 0 | MAP2K2 = 0 | MAP4K2 = 0 | MAPK1 = 0 | MAPK4 = 0 | MAPKAPK2 = 0 | MKNK1 = 0 | NTRK2 = 0 | NTRK3 = 0 | PAK4 = 0 | PBK 0 | PDGFRB 0 | PDK1 = 0

N#C/C(=C/c1ccc(O)c(O)c1)C(=O)N1CCc2ccccc21 [Tyrphostin AG 528] (10 µM)
inactive: IRAK3 = 0 | JAK1 = 0 | LCK 0 | LIMK1 = 0 | LIMK2 = 0 | LMTK2 = 0 | LYN 0 | MAP2K1 = 0 | MAP2K2 = 0 | MAP4K2 = 0 | MAPK1 = 0 | MAPK4 = 0 | MAPKAPK2 = 0 | MKNK1 = 0 | NTRK2 = 0 | NTRK3 = 0 | PAK4 = 0 | PBK 0 | PDGFRB 0 | PDK1 = 0

COc1c(O)cc(O)c2c(=O)cc(-c3ccccc3)oc12 [Wogonin] (10 µM)
inactive: IRAK3 = 0 | JAK1 = 0 | LCK 0 | LIMK1 = 0 | LIMK2 = 0 | LMTK2 = 0 | LYN 0 | MAP2K1 = 0 | MAP2K2 = 0 | MAP4K2 = 0 | MAPK1 = 0 | MAPK4 = 0 | MAPKAPK2 = 0 | MKNK1 = 0 | NTRK2 = 0 | NTRK3 = 0 | PAK4 = 0 | PBK 0 | PDGFRB 0 | PDK1 = 0

O=C(CCl)c1c[nH]c2ccccc12 (2.5 µM)
inactive: IRAK3 = 0 | JAK1 = 0 | LCK 0 | LIMK1 = 0 | LIMK2 = 0 | LMTK2 = 0 | LYN 0 | MAP2K1 = 0 | MAP2K2 = 0 | MAP4K2 = 0 | MAPK1 = 0 | MAPK4 = 0 | MAPKAPK2 = 0 | MKNK1 = 0 | NTRK2 = 0 | NTRK3 = 0 | PAK4 = 0 | PBK 0 | PDGFRB 0 | PDK1 = 0

From the supplement of paper PMC12823440, “Inhibitors supercharge kinase turnover through native proteolytic circuits” (Nature, 2025)
